Results are given in words; binding and its absence hold for the method and conditions named. Binding seen in cells or lysates may run through a third protein. Some entries that bind do so weakly or less than the wild type.
Key:
[1] = biological target: FUS (human (endogenous in HeLa)) (UniProt P35637); test: proximity ligation
[2] = biological target: GAPDH (human (endogenous in HeLa)) (UniProt P04406); test: proximity ligation

Chains of the proteins cited; added tags and fusions are not shown.
UniProt P35637: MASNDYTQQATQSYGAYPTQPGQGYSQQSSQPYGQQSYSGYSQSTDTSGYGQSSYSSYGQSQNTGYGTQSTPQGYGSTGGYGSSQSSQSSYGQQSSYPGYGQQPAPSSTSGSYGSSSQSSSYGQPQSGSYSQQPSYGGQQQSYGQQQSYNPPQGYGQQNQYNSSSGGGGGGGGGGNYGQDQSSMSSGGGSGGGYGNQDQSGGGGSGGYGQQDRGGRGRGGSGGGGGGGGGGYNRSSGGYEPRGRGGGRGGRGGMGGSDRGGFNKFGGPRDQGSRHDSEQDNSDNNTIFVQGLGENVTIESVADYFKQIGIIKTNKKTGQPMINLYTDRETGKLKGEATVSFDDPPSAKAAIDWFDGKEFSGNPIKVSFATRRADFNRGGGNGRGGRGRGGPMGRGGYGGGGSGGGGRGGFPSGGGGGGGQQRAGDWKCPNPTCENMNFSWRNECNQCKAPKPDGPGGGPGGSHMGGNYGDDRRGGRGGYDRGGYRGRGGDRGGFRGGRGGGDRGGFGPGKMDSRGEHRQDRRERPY
UniProt P04406: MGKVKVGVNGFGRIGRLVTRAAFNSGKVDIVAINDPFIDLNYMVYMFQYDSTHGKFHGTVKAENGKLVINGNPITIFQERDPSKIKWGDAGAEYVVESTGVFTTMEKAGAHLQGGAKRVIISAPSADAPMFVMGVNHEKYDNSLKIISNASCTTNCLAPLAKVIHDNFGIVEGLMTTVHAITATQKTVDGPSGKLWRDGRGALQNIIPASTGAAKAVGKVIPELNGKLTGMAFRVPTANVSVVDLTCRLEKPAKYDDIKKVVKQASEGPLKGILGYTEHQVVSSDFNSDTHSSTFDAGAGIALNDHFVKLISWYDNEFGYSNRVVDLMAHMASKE

- binding [1]: binds
- binding [2]: no binding
B1: RNase H1 (enzyme, UniProt O60930 1-286)
chain: MSWLLFLAHRVALAALPCRRGSRGFGMFYAVRRGRKTGVFLTWNECRAQVDRFPAARFKKFATEDEAWAFVRKSASPEVSEGHENQHGQESEAKASKRLREPLDGDGHESAEPYAKHMKPSVEPAPPVSRDTFSYMGDFVVVYTDGCCSSNGRRRPRAGIGVYWGPGHPLNVGIRLPGRQTNQRAEIHAACKAIEQAKTQNINKLVLYTDSMFTINGITNWVQGWKKNGWKTSAGKEVINKEDFVALERLTQGMDIQWMHVPGHSGFIGNEEADRLAREGAKQSED
